# Bridge positions count the residues as written; N and C are the ends. Square brackets hold non-standard residues; d marks the D form. * marks the point of attachment. ξ: configuration not given here. Phe(4-NO2) = N[C@@H](Cc1ccc([N+](=O)[O-])cc1)C(=O)O; dPhe(4-NHCONH2) = NC(=O)Nc1ccc(C[C@@H](N)C(=O)O)cc1; ξDihydroorotoyl = O=C1CC(C(=O)*)NC(=O)N1; Phe(4-NH2) = Nc1ccc(C[C@H](N)C(=O)O)cc1; 2Nal = N[C@@H](Cc1ccc2ccccc2c1)C(=O)O
# Test: general procedure: Boc solid-phase peptide synthesis; MBHA resin, capacity 0.3-0.4 mequiv/g
# Details: for final purity (method not given): CZE; for final HPLC purity: analytical RP-HPLC and capillary zone electrophoresis (CZE)
# [1] = whole synthesis, one disulfide bridge
# [2] = whole synthesis, one disulfide bridge, sequence written open
# [3] = conjugation step, one disulfide bridge, sequence written open
# [4] = conjugation step, one disulfide bridge
Substance,final purity (method not given) [1] [%],final HPLC purity [1] [%],other results
(cyclo 3-14) DOTA-Cpa-D-Cys-4Aph(Cbm)-D-Trp-Lys-Thr-Cys-2Nal-NH2,–,–,final purity (method not given) (conjugation step): about 98% pure; final HPLC purity (conjugation step): 99%
(cyclo 3-14) DOTA-Cpa-D-Cys-4Aph(Hor)-D-4Aph(Cbm)-Lys-Thr-Cys-D-Tyr-NH2,–,–,final purity (method not given) (conjugation step): about 98%
(cyclo 3-14) DOTA-Cpa-D-Cys-4Aph(Hor)-D-4Aph(Cbm)-Lys-Thr-Cys-NH2,–,–,final purity (method not given) (conjugation step): about 98%
(cyclo 3-14) DOTA-Cpa-D-Cys-4Aph(Hor)-D-Aph(Cbm)-Lys-Thr-Cys-2Nal-NH2,–,–,final purity (method not given) (conjugation step): about 98% pure
(cyclo 3-14) DOTA-Cpa-D-Cys-Tyr-D-4Aph(Cbm)-Lys-Thr-Cys-2Nal-NH2,–,–,final purity (method not given) (conjugation step): 94% pure
(cyclo 3-14) DOTA-pNO2-Phe-D-Cys-ITyr-D-Trp-Lys-Thr-Cys-D-Tyr-NH2,–,–,final purity (method not given) (conjugation step): about 98% pure
(cyclo 3-14) DOTA-pNO2-Phe-D-Cys-Tyr-D-4Aph(Cbm)-Lys-Thr-Cys-2Nal-NH2,–,–,"final purity (method not given) (conjugation step, run 1): about 98%; final purity (method not given) (conjugation step, run 2): 99%; final HPLC purity (conjugation step): 99%"
(cyclo 3-14) DOTA-pNO2-Phe-D-Cys-Tyr-D-4Aph(Cbm)-Lys-Thr-Cys-D-Tyr-NH2,–,–,"final purity (method not given) (conjugation step, run 1): about 98%; final purity (method not given) (conjugation step, run 2): 99%; final HPLC purity (conjugation step): 99%"
Ac-pNO2Phe-DCys-Tyr-DTrp-Lys-Thr-Cys-DTyr-NH2,99,99,–
Cbm-Cpa-DCys-Aph(Cbm)-DTrp-Lys-Thr-Cys-2Nal-NH2,–,–,final purity (method not given) [2]: 98%; final HPLC purity [2]: 96%
DOTA-Peg-Cpa-DCys-Aph(Cbm)-DTrp-Lys-Thr-Cys-2Nal-NH2,–,–,final purity (method not given) [3]: 99%; final HPLC purity [3]: 99%
DOTA-pNO2Phe-DCys-Tyr-DTrp-Lys-Thr-Cys-DTyr-NH2,–,–,final purity (method not given) [4]: 97%; final HPLC purity [4]: 95%
DOTA-βAla-Cpa-DCys-Aph(Cbm)-DTrp-Lys-Thr-Cys-2Nal-NH2,–,–,final purity (method not given) [3]: 98%; final HPLC purity [3]: 99%
H2N—Cpa-DCys-Aph(CONH—OCH3)-DTrp-Lys-Thr-Cys-2Nal-NH2,99,99,–
H2N—Cpa-DCys-Aph(CONH—OH)-DTrp-Lys-Thr-Cys-2Nal-NH2,99,99,–
H2N—Cpa-DCys-Aph(Cbm)-5F-DTrp-Lys-Thr-Cys-2Nal-NH2,96,96,–
H2N—Cpa-DCys-Aph(Cbm)-DTrp-Lys-Thr-Cys-2Nal-NH2,97,99,–
H2N—Cpa-DCys-Aph(Cbm)-DTrp-Lys-Thr-Cys-Aph(Cbm)-NH2,99,99,–
H2N—Cpa-DCys-Aph(Cbm)-DTrp-Lys-Thr-Cys-Aph(Hor)-NH2,99,99,–
H2N—Cpa-DCys-Aph(Cbm)-DTrp-Lys-Thr-Cys-Cha-NH2,96,99,–
H2N—Cpa-DCys-Aph(Cbm)-DTrp-Lys-Thr-Cys-DAph(Cbm)-Gly-OH,98,98,–
H2N—Cpa-DCys-Aph(Cbm)-DTrp-Lys-Thr-Cys-DAph(Cbm)-NH2,99,99,–
H2N—Cpa-DCys-Aph(Cbm)-DTrp-Lys-Thr-Cys-NH2,99,99,–
"H2N—Cpa-DCys-D-Agl(NMe,benzoyl)-DTrp-Lys-Thr-Cys-2Nal-NH2",99,98,–
"H2N—Cpa-DCys-L-Agl(NMe,benzoyl)-DTrp-Lys-Thr-Cys-2Nal-NH2",98,95,–
H2N—Cpa-DCys-Leu-DTrp-Lys-Thr-Cys-2Nal-NH2,99,99,–
H2N—Cpa-DCys-Tyr-DTrp-Lys-Thr-Cys-2Nal-NH2,99,99,–
H2N—Cpa-DCys-Tyr-DTrp-NMeLys-Thr-Cys-2Nal-NH2,99,97,–
H2N—pNO2Phe-DCys-Tyr-DAph(Cbm)-Lys-Thr-Cys-2Nal-NH2,99,99,–
H-[Phe(4-NO2)][dC][Phe(4-NH2)](ξDihydroorotoyl)[dPhe(4-NHCONH2)]KTC[2Nal]-NH2 (disulfide 2-7; SMILES C[C@@H](O)[C@@H]1NC(=O)[C@H](CCCCN)NC(=O)[C@@H](Cc2ccc(NC(N)=O)cc2)NC(=O)[C@H](Cc2ccc(NC(=O)C3CC(=O)NC(=O)N3)cc2)NC(=O)[C@H](NC(=O)[C@@H](N)Cc2ccc([N+](=O)[O-])cc2)CSSC[C@@H](C(=O)N[C@@H](Cc2ccc3ccccc3c2)C(N)=O)NC1=O),–,–,final purity (method not given) (whole synthesis): 99%; final HPLC purity (whole synthesis): 99%
